# Test results published in the supplement of paper PMC8728848.
# The other results are listed elsewhere or left out.
# Assays:
# Experiment in all cases: glycan array binding signal (z-score within array); higher = stronger binding
# Conditions in all cases: glycan notation: IUPAC condensed, linker removed
# [1] = target: Gal(b1-3)GlcNAc(b1-3)Gal(b1-4)[Fuc(a1-3)]GlcNAc(b1-6)[Gal(b1-3)GlcNAc(b1-3)]Gal(b1-4)Glc
# How it was run: (§1)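 Negative Z-scores can be read as non-binding. The Z-score is calculated within each array and then averaged across arrays of one protein sequence at different concentrations or buffers and across linkers. Arrays, 3228 in all, were curated from the Consortium for Functional Glycomics database and kept only where the protein sequence was available.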
# [2] = target: Gal(b1-3)GlcNAc(b1-3)GalNAc
# How it was run: as §1
# [3] = target: Gal(b1-3)GlcNAc(b1-6)Gal(b1-4)GlcNAc
# How it was run: as §1
# [4] = target: Gal(b1-3)[Fuc(a1-4)]GlcNAc
# How it was run: as §1
# [5] = target: Gal(b1-3)[Fuc(a1-4)]GlcNAc(b1-2)Man(a1-3)[Gal(b1-3)[Fuc(a1-4)]GlcNAc(b1-2)Man(a1-6)]Man(b1-4)GlcNAc(b1-4)GlcNAc
# How it was run: as §1
# [6] = target: Gal(b1-3)[Fuc(a1-4)]GlcNAc(b1-2)Man(a1-3)[Gal(b1-3)[Fuc(a1-4)]GlcNAc(b1-2)Man(a1-6)]Man(b1-4)GlcNAc(b1-4)[Fuc(a1-6)]GlcNAc
# How it was run: as §1
# [7] = target: Gal(b1-3)[Fuc(a1-4)]GlcNAc(b1-3)Gal(b1-3)[Fuc(a1-4)]GlcNAc
# How it was run: as §1
# [8] = target: Gal(b1-3)[Fuc(a1-4)]GlcNAc(b1-3)Gal(b1-4)GlcNAc
# How it was run: as §1
# [9] = target: Gal(b1-3)[Fuc(a1-4)]GlcNAc(b1-3)Gal(b1-4)[Fuc(a1-3)]GlcNAc
# How it was run: as §1
# [10] = target: Gal(b1-3)[GlcNAc(b1-6)]GalNAc
# How it was run: as §1
# [11] = target: Gal(b1-3)[Neu5Ac(a2-6)]GalNAc
# How it was run: as §1
# [12] = target: Gal(b1-3)[Neu5Ac(a2-6)]GlcNAc(b1-6)Gal(b1-4)Glc
# How it was run: as §1
# [13] = target: Gal(b1-3)[Neu5Ac(b2-6)]GalNAc
# How it was run: as §1
# Gal(b1-4)Gal = target: Gal(b1-4)Gal
# How it was run: as §1
# [14] = target: Gal(b1-4)GalNAc(a1-3)[Fuc(a1-2)]Gal(b1-4)GlcNAc
# How it was run: as §1
# [15] = target: Gal(b1-4)GalNAc(b1-3)[Fuc(a1-2)]Gal(b1-4)GlcNAc
# How it was run: as §1
# Gal(b1-4)Glc = target: Gal(b1-4)Glc
# How it was run: as §1
# Gal(b1-4)Glc6S = target: Gal(b1-4)Glc6S
# How it was run: as §1
# Gal(b1-4)GlcNAc = target: Gal(b1-4)GlcNAc
# How it was run: as §1
# [16] = target: Gal(b1-4)GlcNAc(a1-6)Gal(b1-4)GlcNAc
# How it was run: as §1
# [17] = target: Gal(b1-4)GlcNAc(b1-2)Man(a1-3)Man(b1-4)GlcNAc(b1-4)GlcNAc
# How it was run: as §1
# [18] = target: Gal(b1-4)GlcNAc(b1-2)Man(a1-3)[Gal(b1-4)GlcNAc(b1-2)Man(a1-6)]Man(b1-4)GlcNAc(b1-4)GlcNAc
# How it was run: as §1
# [19] = target: Gal(b1-4)GlcNAc(b1-2)Man(a1-3)[Gal(b1-4)GlcNAc(b1-2)Man(a1-6)]Man(b1-4)GlcNAc(b1-4)[Fuc(a1-6)]GlcNAc
# How it was run: as §1
# [20] = target: Gal(b1-4)GlcNAc(b1-2)Man(a1-3)[Gal(b1-4)GlcNAc(b1-2)][GlcNAc(b1-4)]Man(b1-4)GlcNAc(b1-4)GlcNAc
# How it was run: as §1
# [21] = target: Gal(b1-4)GlcNAc(b1-2)Man(a1-3)[GlcNAc(b1-2)Man(a1-6)]Man(b1-4)GlcNAc(b1-4)GlcNAc
# How it was run: as §1
# [22] = target: Gal(b1-4)GlcNAc(b1-2)Man(a1-3)[Man(a1-6)]Man(b1-4)GlcNAc(b1-4)GlcNAc
# How it was run: as §1
# [23] = target: Gal(b1-4)GlcNAc(b1-2)Man(a1-6)Man(b1-4)GlcNAc(b1-4)GlcNAc
# How it was run: as §1
# [24] = target: Gal(b1-4)GlcNAc(b1-2)Man(a1-6)[GlcNAc(b1-2)Man(a1-3)]Man(b1-4)GlcNAc(b1-4)GlcNAc
# How it was run: as §1
# [25] = target: Gal(b1-4)GlcNAc(b1-2)Man(a1-6)[Man(a1-3)]Man(b1-4)GlcNAc(b1-4)GlcNAc
# How it was run: as §1
# [26] = target: Gal(b1-4)GlcNAc(b1-2)[Gal(b1-4)GlcNAc(b1-4)]Man(a1-3)[Gal(b1-4)GlcNAc(b1-2)Man(a1-6)]Man(b1-4)GlcNAc(b1-4)GlcNAc
# How it was run: as §1
# [27] = target: Gal(b1-4)GlcNAc(b1-2)[Gal(b1-4)GlcNAc(b1-4)]Man(a1-3)[Gal(b1-4)GlcNAc(b1-2)[Gal(b1-4)GlcNAc(b1-6)]Man(a1-6)]Man(b1-4)GlcNAc(b1-4)GlcNAc
# How it was run: as §1
# [28] = target: Gal(b1-4)GlcNAc(b1-2)[Gal(b1-4)GlcNAc(b1-4)]Man(a1-3)[GlcNAc(b1-4)][Gal(b1-4)GlcNAc(b1-2)Man(a1-6)]Man(b1-4)GlcNAc(b1-4)GlcNAc
# How it was run: as §1
# [29] = target: Gal(b1-4)GlcNAc(b1-2)[Gal(b1-4)GlcNAc(b1-6)]Man(a1-6)[GlcNAc(b1-4)][Gal(b1-4)GlcNAc(b1-2)Man(a1-3)]Man(b1-4)GlcNAc(b1-4)GlcNAc
# How it was run: as §1
# [30] = target: Gal(b1-4)GlcNAc(b1-3)Gal(b1-3)GlcNAc
# How it was run: as §1
# [31] = target: Gal(b1-4)GlcNAc(b1-3)Gal(b1-4)Glc
# How it was run: as §1
# [32] = target: Gal(b1-4)GlcNAc(b1-3)Gal(b1-4)GlcNAc
# How it was run: as §1
# [33] = target: Gal(b1-4)GlcNAc(b1-3)Gal(b1-4)GlcNAc(b1-3)Gal(b1-4)GlcNAc
# How it was run: as §1
# [34] = target: Gal(b1-4)GlcNAc(b1-3)Gal(b1-4)[Fuc(a1-3)GlcNAc(b1-6)]Gal(b1-4)Glc
# How it was run: as §1
# [35] = target: Gal(b1-4)GlcNAc(b1-3)Gal(b1-4)[Fuc(a1-3)]GlcNAc(b1-3)Gal(b1-4)[Fuc(a1-3)]GlcNAc
# How it was run: as §1
# [36] = target: Gal(b1-4)GlcNAc(b1-3)GalNAc
# How it was run: as §1
# [37] = target: Gal(b1-4)GlcNAc(b1-3)[Gal(b1-4)GlcNAc(b1-6)]Gal(b1-4)GlcNAc
# How it was run: as §1
# [38] = target: Gal(b1-4)GlcNAc(b1-3)[Gal(b1-4)GlcNAc(b1-6)]GalNAc
# How it was run: as §1
# [39] = target: Gal(b1-4)GlcNAc(b1-3)[GlcNAc(b1-6)]Gal(b1-4)GlcNAc
# How it was run: as §1
# [40] = target: Gal(b1-4)GlcNAc(b1-6)Gal(b1-4)GlcNAc
# How it was run: as §1
# [41] = target: Gal(b1-4)GlcNAc(b1-6)GalNAc
# How it was run: as §1
binder,measurement,setting,value
"rPitB (Streptococcus pneumoniae), A0A0I7U739 (protein) MSEIEIINAKKIYHDVPVIENLNITIPKGSLFTLLGASGCGKTTLLRMIAGFNSIKDGEFYFDDTKINNMEPSKRNIGLVFQNYAIFPHLTVRDNVAFGLMQKKVPKEELIQQTNKYLELMQIAQYAD",glycan array binding signal (z-score),[1],-0.366
same,glycan array binding signal (z-score),[2],0.176
same,glycan array binding signal (z-score),[3],-0.234
same,glycan array binding signal (z-score),[4],-0.025
same,glycan array binding signal (z-score),[5],3.68
same,glycan array binding signal (z-score),[6],2.09
same,glycan array binding signal (z-score),[7],1.1
same,glycan array binding signal (z-score),[8],-0.558
same,glycan array binding signal (z-score),[9],0.005
same,glycan array binding signal (z-score),[10],-0.326
same,glycan array binding signal (z-score),[11],0.092
same,glycan array binding signal (z-score),[12],-0.142
same,glycan array binding signal (z-score),[13],-0.372
same,glycan array binding signal (z-score),Gal(b1-4)Gal,-0.062
same,glycan array binding signal (z-score),[14],0.733
same,glycan array binding signal (z-score),[15],-0.409
same,glycan array binding signal (z-score),Gal(b1-4)Glc,-0.141
same,glycan array binding signal (z-score),Gal(b1-4)Glc6S,-0.024
same,glycan array binding signal (z-score),Gal(b1-4)GlcNAc,-0.449
same,glycan array binding signal (z-score),[16],0.072
same,glycan array binding signal (z-score),[17],0.13
same,glycan array binding signal (z-score),[18],0.354
same,glycan array binding signal (z-score),[19],0.8
same,glycan array binding signal (z-score),[20],0.058
same,glycan array binding signal (z-score),[21],-0.568
same,glycan array binding signal (z-score),[22],-0.905
same,glycan array binding signal (z-score),[23],-0.551
same,glycan array binding signal (z-score),[24],-0.347
same,glycan array binding signal (z-score),[25],-0.362
same,glycan array binding signal (z-score),[26],-0.505
same,glycan array binding signal (z-score),[27],0.865
same,glycan array binding signal (z-score),[28],1.64
same,glycan array binding signal (z-score),[29],0.115
same,glycan array binding signal (z-score),[30],0.286
same,glycan array binding signal (z-score),[31],-0.564
same,glycan array binding signal (z-score),[32],-0.055
same,glycan array binding signal (z-score),[33],-0.74
same,glycan array binding signal (z-score),[34],0.262
same,glycan array binding signal (z-score),[35],-0.492
same,glycan array binding signal (z-score),[36],0.086
same,glycan array binding signal (z-score),[37],-0.241
same,glycan array binding signal (z-score),[38],0.445
same,glycan array binding signal (z-score),[39],-0.061
same,glycan array binding signal (z-score),[40],-0.596
same,glycan array binding signal (z-score),[41],0.741

# Part of the list above, as tab-separated lines.
binder	measurement	setting	value
rPitB (Streptococcus pneumoniae), A0A0I7U739 (protein) MSEIEIINAKKIYHDVPVIENLNITIPKGSLFTLLGASGCGKTTLLRMIAGFNSIKDGEFYFDDTKINNMEPSKRNIGLVFQNYAIFPHLTVRDNVAFGLMQKKVPKEELIQQTNKYLELMQIAQYAD	glycan array binding signal (z-score)	[15]	-0.409
same	glycan array binding signal (z-score)	[19]	0.8
